{
  "sequences": {"note": "Protein sequences, listed by entry. Tags and fused reporters are not part of them.", "UniProt Q15025": "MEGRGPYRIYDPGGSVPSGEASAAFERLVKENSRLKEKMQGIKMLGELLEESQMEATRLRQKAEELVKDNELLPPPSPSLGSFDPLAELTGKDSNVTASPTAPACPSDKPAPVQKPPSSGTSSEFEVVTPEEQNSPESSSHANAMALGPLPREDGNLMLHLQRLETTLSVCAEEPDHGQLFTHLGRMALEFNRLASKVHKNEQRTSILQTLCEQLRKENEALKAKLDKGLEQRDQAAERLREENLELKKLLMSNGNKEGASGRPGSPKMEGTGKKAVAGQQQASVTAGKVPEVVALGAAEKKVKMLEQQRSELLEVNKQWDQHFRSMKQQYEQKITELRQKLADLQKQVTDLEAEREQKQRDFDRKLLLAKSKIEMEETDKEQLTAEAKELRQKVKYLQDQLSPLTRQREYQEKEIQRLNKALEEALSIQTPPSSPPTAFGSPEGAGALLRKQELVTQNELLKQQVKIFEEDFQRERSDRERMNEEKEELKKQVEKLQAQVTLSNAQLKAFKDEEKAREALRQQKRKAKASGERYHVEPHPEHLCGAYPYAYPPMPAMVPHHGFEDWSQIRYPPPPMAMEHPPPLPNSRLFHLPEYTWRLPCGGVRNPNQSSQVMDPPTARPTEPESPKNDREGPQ", "UniProt Q9Y6K9": "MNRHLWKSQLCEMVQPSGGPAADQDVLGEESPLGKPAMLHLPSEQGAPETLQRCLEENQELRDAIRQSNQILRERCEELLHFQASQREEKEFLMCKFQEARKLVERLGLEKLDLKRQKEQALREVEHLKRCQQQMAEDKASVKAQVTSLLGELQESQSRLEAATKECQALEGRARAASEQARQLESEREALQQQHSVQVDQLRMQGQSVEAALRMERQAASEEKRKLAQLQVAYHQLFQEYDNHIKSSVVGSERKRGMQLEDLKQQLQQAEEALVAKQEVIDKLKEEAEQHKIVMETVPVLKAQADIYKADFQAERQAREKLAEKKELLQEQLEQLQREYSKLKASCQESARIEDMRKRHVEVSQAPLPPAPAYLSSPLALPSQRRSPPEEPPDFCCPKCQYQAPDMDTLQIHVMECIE"},
  "source": "paper PMC10541204",
  "biological_target": "TNIP1 (human (endogenous in HRMECs)) (UniProt Q15025)",
  "test": "co-IP; HRMEC lysate in RIPA buffer with protease inhibitor; supernatants immunoprecipitated with indicated antibodies overnight at 4°C, protein G-agarose beads 2 hours, immunoblotting",
  "note": "These are yes or no findings as the source states them, for the method shown. In cells and extracts the contact can be indirect. Some entries that bind do so weakly or less than the wild type.",
  "data": [
    {"substance": "NF-κB essential modulator (from UniProt Q9Y6K9 1-419)", "values": [
      {"measurement": "binding", "value": "binds"}
    ]}
  ]
}
